Reference: publication PMC9475550
Results are given in words; binding and its absence hold for the method and conditions named. In cells and extracts the contact can be indirect.

Amino acid sequences for entries named in this document (tags omitted).
UniProt P61586: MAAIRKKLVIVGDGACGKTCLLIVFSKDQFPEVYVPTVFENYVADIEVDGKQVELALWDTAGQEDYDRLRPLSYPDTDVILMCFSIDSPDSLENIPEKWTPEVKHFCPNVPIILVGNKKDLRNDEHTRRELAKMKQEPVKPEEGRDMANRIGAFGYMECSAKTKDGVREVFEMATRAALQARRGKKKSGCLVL
UniProt Q9NR31: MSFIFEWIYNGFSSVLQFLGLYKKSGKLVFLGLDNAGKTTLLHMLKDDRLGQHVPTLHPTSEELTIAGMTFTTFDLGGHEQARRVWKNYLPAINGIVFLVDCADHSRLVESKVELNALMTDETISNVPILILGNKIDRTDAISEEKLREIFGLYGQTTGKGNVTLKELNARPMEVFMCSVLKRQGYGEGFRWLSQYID

Molecular target: RhoA (UniProt P61586)
Assay: co-IP; HeLa cotransfected with GFP-tagged GTPase and Sar1A-mCherry, incubated overnight; immunoprecipitation against GFP, immunoblot with anti-mCherry

binding: no binding
Substance: Sar1A‐mCherry (from UniProt Q9NR31 1-198)
